Source: patent publication US20250127799A1, “DRUG CONJUGATES FOR BONE MARROW PROTECTION” (priority 2023, published 2025)
Some entries share one result that the patent states for a list of compounds.

Legend:
[1] = test system: human bone marrow mononuclear cells; test: Colony-forming unit assay, proliferation and differentiation stimulation; format: cell-based; settings: 1 mM or 200 μM
[2] = test system: human bone marrow mononuclear cells; test: Colony forming unit assay, protection of cells exposed to carboplatin; format: cell-based; settings: pretreated with 1 mM or 200 μM protective drug, then 50 μM carboplatin (FIG. 8A)
Procedure: In this exemplary representative chemoprotection experiment, a colony forming unit assay was conducted for bone marrow mononuclear cells exposed to carboplatin with or without the pre-treatment with protective agents. In brief, 1.1×10^4 human bone marrow mononuclear cells were suspended in 300 μL culture medium and mixed with 30 μL solutions of PBS (control), Amifostine, WR1065, or Conjugate (with the peptide sequence of CFLG (SEQ ID NO: 18)) at various concentrations. After 2 h of incubation, cells were washed and resuspended in 300 μL culture medium, followed by incubation with 50 μM carboplatin for 4 h. Next, cells were washed and resuspended in the colony forming medium for 14 days. The number of resultant CFU in each group was then determined, and the results were normalized to the group of cells without any treatment. […] In another exemplary representative chemoprotection experiment, Amifostine and Conjugate with the peptide sequence of CFLG (SEQ ID NO: 18) with concentrations ranging from 50 to 1,000 μM were evaluated.

Row | Compound | enhancement in CFU formation compared to Non-treatment control [1] | reduction of CFU counts [2]
1 | NCCCNCCSP(=O)(O)O [Amifostine] | 25-50% | 2-20%
2 | NCCCNCCS [WR1065, amifostine thiol] | 25-50% | 2-20%
